Assay results reported in US4382922A, “Peptides affecting gonadal function” (The Salk Institute for Biological Studies, priority 1982, dated 1983).
Like-named read-outs stand apart in the source and are kept apart here. Part of at least one peptide drawing is inferred or uncertain, most often the ends.

Test system: dispersed rat pituitary cells
Assay type: cell-based
Conditions: 4-hour period, four-day-old rat pituitary cell culture (control 627)
Experimental: The peptides prepared in the foregoing Example I are assayed in vitro using a four-day-old primary culture of dispersed rat pituitary cells and compared with LRF. The levels of LH secreted over a 4-hour period in response to the application of peptides are assayed by specific radioimmunoassay for rat LH. The results of testing are expressed in the tables herebelow: […]

| Compound | NANOGRAMS OF LH SECRETED/ml. 4 hr. (0.01 nM peptide) [nanograms/ml] | NANOGRAMS OF LH SECRETED/ml. 4 hr. (0.03 nM peptide) [nanograms/ml] | NANOGRAMS OF LH SECRETED/ml. 4 hr. (0.003 nM peptide) [nanograms/ml] |
| --- | --- | --- | --- |
| CCNC(=O)[C@@H]1CCCN1C(=O)[C@H](CCCNC(=N)N)NC(=O)[C@H](CC(C)C)NC(=O)[C@@H](Cc1ccc(OC)cc1)NC(=O)[C@H](Cc1ccc(O)cc1)NC(=O)[C@H](CO)NC(=O)[C@H](Cc1c[nH]c2ccccc12)NC(=O)[C@H](Cc1c[nH]cn1)NC(=O)[C@@H]1CCC(=O)N1 [Peptide No. 2, [OCH3 -D-Phe^6, Pro^9 -NEt]-LRF] | 1467 | 1723 |  |
| CCNC(=O)[C@@H]1CCCN1C(=O)[C@H](CCCNC(=N)N)NC(=O)[C@H](CC(C)C)NC(=O)[C@@H](Cc1c(C)c(C)c(C)c(C)c1C)NC(=O)[C@H](Cc1ccc(O)cc1)NC(=O)[C@H](CO)NC(=O)[C@H](Cc1c[nH]c2ccccc12)NC(=O)[C@H](Cc1c[nH]cn1)NC(=O)[C@@H]1CCC(=O)N1 [Peptide No. 7, [pentamethyl-D-Phe^6, Pro^9 -NEt]-LRF] | 908 | 2063 | 698 |
